Data as given in PubChem BioAssay AID1671195 (Yale University, 2021)
Shown is one part, drawn at random, of about 22,000 deposited reagents. About 1,510 of all reagents (6.9%) count as active. 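Active includes knockdowns raising or lowering LDL uptake; positive z-scores mean more uptake, negative mean less.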

Test: 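Genes whose knockdown alters LDL uptake in liver cancer cells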 (primary screen)
Cell system: human Huh7 hepatoma cells
Knock-down reagent: siRNA pool against human genes, 18 nM
Duration: about 2 to 2.5 days of knockdown, then 8 h LDL uptake
Challenge: DiI-labelled LDL at 30 µg/ml for 8 h, in lipoprotein-deficient serum medium
Detection: 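Per-cell DiI-LDL intensity by automated imaging; well means scaled to the plate median and given as a robust z-score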
Scale: robust z-score: higher = more LDL uptake after knockdown
Active means: 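a gene counts as active if at least two replicate z-scores exceed ±2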

gene symbol | robust z-score, replicate 1 | robust z-score, replicate 2 | robust z-score, replicate 3 | outcome
C8G (complement C8 gamma chain) | 0.21 | -0.303 | -0.28 | inactive
AK2 (adenylate kinase 2) | 1.16 | 0.445 | 0.168 | inactive
TMEM240 (transmembrane protein 240) | 2.69 | 2.83 | 2.71 | active
UMPS (uridine monophosphate synthetase) | -0.654 | -1.34 | -0.49 | inactive
F13B (coagulation factor XIII B chain) | -0.547 | 0.529 | -0.259 | inactive
ZNF595 (zinc finger protein 595) | -0.337 | 0.0337 | -0.26 | inactive
GAPT (GRB2 binding adaptor protein, transmembrane) | 1.07 | 1.62 | 1.7 | inactive
LOC387761 (retired record) | 1.22 | 0.747 | 0.921 | inactive
CSDC2 (cold shock domain containing C2) | 0.54 | 0.431 | 0.0282 | inactive
BABAM1 (BRISC and BRCA1 A complex member 1) | 0.763 | -0.681 | 0.827 | inactive
LOC389409 (retired record) | -0.0592 | 0.358 | 0.362 | inactive
DIMT1 (DIM1 rRNA methyltransferase and ribosome maturation factor) | -0.0523 | 0.00514 | -0.353 | inactive
NHERF2 (NHERF family PDZ scaffold protein 2) | -0.267 | -1.23 | -0.928 | inactive
GALK2 (galactokinase 2) | -0.691 | -0.911 | -1.23 | inactive
LYRM1 (LYR motif containing 1) | -0.512 | -0.931 | 0.677 | inactive
NXF3 (nuclear RNA export factor 3) | -1.14 | -1.71 | -1.61 | inactive
CPTP (ceramide-1-phosphate transfer protein) | -0.622 | -0.568 | -1.07 | inactive
MORF4L1 (mortality factor 4 like 1) | -1.22 | 0.564 | -0.857 | inactive
TMEM187 (transmembrane protein 187) | -0.97 | -0.847 | -0.711 | inactive
PENK (proenkephalin) | 1.3 | 1.24 | 1.05 | inactive
GABRA3 (gamma-aminobutyric acid type A receptor subunit alpha3) | -1.31 | -0.931 | -1.11 | inactive
SLC6A19 | 0.221 | 0.732 | 0.295 | inactive
CALCRL (calcitonin receptor like receptor) | 2.66 | 1.08 | 2.45 | active
SEMA6B (semaphorin 6B) | -1.15 | 0.236 | -1.57 | inactive
MIRLET7BHG (MIRLET7B and MIRLET7A3 host gene) | -0.759 | -1.09 | -1.06 | inactive
CTDNEP1 (CTD nuclear envelope phosphatase 1) | 1.28 | -2.34 | 0.0152 | inactive
OSBP2 (oxysterol binding protein 2) | -1.51 | -0.986 | -1.06 | inactive
KATNIP (katanin interacting protein) | -1.34 | -1.75 | -1.15 | inactive
CCNDBP1 (cyclin D1 binding protein 1) | -1.75 | 0.368 | -2.49 | inactive
GBA2 (glucosylceramidase beta 2) | -0.203 | -0.922 | -0.574 | inactive
ARID5B (AT-rich interaction domain 5B) | 0.636 | 0.262 | 0.698 | inactive
VANGL2 (VANGL planar cell polarity protein 2) | 1.29 | 1.2 | 0.566 | inactive
LINC01299 (long independently transcribed non-coding RNA 1299) | 2.14 | 1.96 | 1.82 | inactive
CRACDL (CRACD like) | 1.76 | 1.97 | 2.33 | active
NAPG (NSF attachment protein gamma) | -0.584 | -0.262 | -0.29 | inactive
GALNT13 (polypeptide N-acetylgalactosaminyltransferase 13) | 2.48 | 2.02 | 1.63 | active
TMX2 (thioredoxin related transmembrane protein 2) | 0.795 | 0.116 | 0.362 | inactive
OR9A4 (olfactory receptor family 9 subfamily A member 4) | 1.74 | -0.322 | 0.543 | inactive
NPC1L1 (NPC1 like intracellular cholesterol transporter 1) | 0.142 | 1.54 | -0.244 | inactive
C8A (complement C8 alpha chain) | 0.489 | 0.0481 | 1.35 | inactive
CEP162 (centrosomal protein 162) | 2.74 | 1.56 | 0.89 | inactive
HRH1 (histamine receptor H1) | 2.81 | 1.39 | 2.09 | active
NFYA (nuclear transcription factor Y subunit alpha) | 1.21 | 0.669 | 1.34 | inactive
ANKS6 (ankyrin repeat and sterile alpha motif domain containing 6) | 2.43 | 1.71 | 2.48 | active
CEP295 (centrosomal protein 295) | 1.08 | 0.985 | 0.798 | inactive
PRKDC (protein kinase, DNA-activated, catalytic subunit) | -1.37 | 0.2 | -0.927 | inactive
ABTB1 (ankyrin repeat and BTB domain containing 1) | -1.08 | -1.13 | -1.33 | inactive
DPEP1 (dipeptidase 1) | -0.415 | 0.00312 | -0.254 | inactive
PMEPA1 (prostate transmembrane protein, androgen induced 1) | 1.41 | 0.983 | 2.4 | inactive
LOC389162 (retired record) | 2.54 | 1.61 | 1.63 | inactive
BDH1 (3-hydroxybutyrate dehydrogenase 1) | -0.852 | -0.414 | -0.402 | inactive
TMIGD2 (transmembrane and immunoglobulin domain containing 2) | -0.136 | -0.106 | 0.677 | inactive
SKI (SKI proto-oncogene) | -0.714 | -0.633 | -0.909 | inactive
PPARGC1A (PPARG coactivator 1 alpha) | 2.08 | 1.23 | 1.98 | active
EMC10 (ER membrane protein complex subunit 10) | -0.361 | -0.639 | -0.501 | inactive
SUV39H1 (SUV39H1 histone lysine methyltransferase) | -0.5 | -0.429 | -0.401 | inactive
LARS2 (leucyl-tRNA synthetase 2, mitochondrial) | 0.474 | -0.611 | -0.197 | inactive
LOC440839 (retired record) | -4.05 | -0.401 | -0.691 | inactive
ZNHIT3 (zinc finger HIT-type containing 3) | 0.344 | 0.231 | 0.415 | inactive
MAGEB10 (MAGE family member B10) | 0.565 | 0.33 | 1.12 | inactive
DBNL (drebrin like) | 1.3 | -0.321 | 0.0876 | inactive
ROCK1 (Rho associated coiled-coil containing protein kinase 1) | -1.26 | -1.6 | -1.78 | inactive
PRPF8 (pre-mRNA processing factor 8) | -0.753 | -0.943 | -0.923 | inactive
DHODH (dihydroorotate dehydrogenase (quinone)) | -0.214 | -0.571 | -0.748 | inactive
MDFIC (MyoD family inhibitor domain containing) | -3.21 | -0.255 | -2.53 | active
OR8H2 (olfactory receptor family 8 subfamily H member 2) | 3.29 | 3.3 | 3.68 | active
LOC283586 (retired record) | 0.417 | 0.243 | 1.22 | inactive
HNRNPM (heterogeneous nuclear ribonucleoprotein M) | -0.341 | -0.583 | -0.943 | inactive

Part of the list above in another layout:
| gene symbol | robust z-score, replicate 1 | robust z-score, replicate 2 | robust z-score, replicate 3 | outcome |
| --- | --- | --- | --- | --- |
| TMEM187 (transmembrane protein 187) | -0.97 | -0.847 | -0.711 | inactive |
| PENK (proenkephalin) | 1.3 | 1.24 | 1.05 | inactive |
| GABRA3 (gamma-aminobutyric acid type A receptor subunit alpha3) | -1.31 | -0.931 | -1.11 | inactive |
| SLC6A19 | 0.221 | 0.732 | 0.295 | inactive |
| CALCRL (calcitonin receptor like receptor) | 2.66 | 1.08 | 2.45 | active |
